PubChem BioAssay AID330 (DTP/NCI, 2004)
The list does not hold the whole screen: it gathers tests that were run many times, whatever their T/C, doses with no T/C, and many T/C values between a quarter and a half above the control. Other doses and runs of a compound stand elsewhere. T/C gives the treated animals as a percentage of the vehicle group. Some entries give survivors of the animals treated and no T/C: the source holds a T/C of zero for them, seemingly a mark for toxic or unscored doses. Some survivor counts are full or nearly so, which does not show that the dose was tolerated: survival well below the control is almost never listed, so the zero probably covers shortened survival too. Survivors were counted at the toxicity check, usually on the fifth day, unless a day is given; later deaths do not show. Schedule codes are those of the source, taken here to give the interval after Q, in days (D) or hours (H), and the number of doses after X. Some doses were run more than once; the values are given in rising order. For survival time, the PubChem record calls one and a half times the control and up active, and a quarter to a half above the control has no call in these data; cut-offs in other NCI protocols can differ. Some T/C values carry the count of animals alive at the toxicity check (mostly the fifth day); without a count, all were alive then.

System: P388 leukemia ip, CD2F1 mice, survival T/C
Assay: NCI In Vivo Anticancer Drug Screen. Data for tumor model P388 Leukemia (intraperitoneal) in CD2F1 (CDF1) mice
Settings: T/C endpoint: median survival time, higher T/C = longer survival
[1] = dose: 240.0 mg/kg/injection, schedule: Q01DX005 (ip), vehicle: saline with Tween-80
[2] = dose: 100.0 mg/kg/injection, schedule: Q01DX005 (ip), vehicle: saline with Tween-80
[3] = dose: 200.0 mg/kg/injection, schedule: Q01DX005 (ip), vehicle: saline with Tween-80
[4] = dose: 200.0 mg/kg/injection, schedule: Q01DX005 (ip), vehicle: Klucel (hydroxypropylcellulose) (HPC)

O=C1OCCCCCCOC(=O)c2ccccc2SSc2ccccc21
survivor count (dose: 100.0 mg/kg/injection, schedule: Q01DX001 (ip), vehicle: saline with Tween-80): 6 of 6

N/C(=N\O)c1c(Br)n(C2OC(CO)C(O)C2O)c2ncnc(N)c12 (stereo unspecified)
T/C [1]: 132 % of control

Cc1ccc(S(=O)(=O)NN=C(C(=O)O)C(=O)O)cc1
survivor count (dose: 100.0 mg/kg/injection, schedule: Q01DX009 (ip), vehicle: distilled water + Tween-80): 3 of 6
survivor count (dose: 400.0 mg/kg/injection, schedule: Q01DX009 (ip), vehicle: distilled water + Tween-80): 0 of 6

CN(c1ccccc1)c1c(Cl)c(=O)oc2c1ccc1occc12
survivor count (dose: 60.0 mg/kg/injection, schedule: Q01DX005 (ip), vehicle: saline): 6 of 6

CS(C)=Nc1ccc([N+](=O)[O-])cc1
survivor count (dose: 400.0 mg/kg/injection, schedule: Q01DX001 (ip), vehicle: Klucel (hydroxypropylcellulose) (HPC)): 2 of 6

CC(=O)OC(OC(C)=O)c1ccc([N+](=O)[O-])s1
survivor count (dose: 200.0 mg/kg/injection, schedule: Q01DX009 (ip), vehicle: Klucel (hydroxypropylcellulose) (HPC)): 4 of 6
survivor count (dose: 400.0 mg/kg/injection, schedule: Q01DX009 (ip), vehicle: Klucel (hydroxypropylcellulose) (HPC)): 1 of 6

Fc1cccc(Cl)c1C(Nc1nncs1)Nc1nncs1
T/C (dose: 60.0 mg/kg/injection, schedule: Q01DX005 (ip), vehicle: Klucel (hydroxypropylcellulose) (HPC)): 128 and 130 % of control
T/C (dose: 120.0 mg/kg/injection, schedule: Q01DX005 (ip), vehicle: Klucel (hydroxypropylcellulose) (HPC)): 145 % of control [5 of 6 alive]
survivor count (dose: 480.0 mg/kg/injection, schedule: Q01DX005 (ip), vehicle: Klucel (hydroxypropylcellulose) (HPC)): 4 of 6

CC(C)(C)c1ccc2c(cc[n+]3ccccc23)c1
survivor count (dose: 50.0 mg/kg/injection, schedule: Q01DX005 (ip), vehicle: saline with Tween-80): 0 of 5
survivor count [2]: 0 of 5
survivor count [3]: 0 of 5

Cc1cccc(/C=N\N=C\c2cccc(C)n2)n1
survivor count (dose: 400.0 mg/kg/injection, schedule: Q01DX009 (ip), vehicle: saline with Tween-80): 5 of 6

Oc1cc(O)cc(/C=C/c2ccccc2)c1
survivor count (dose: 200.0 mg/kg/injection, schedule: Q01DX005 (ip), vehicle: water): 3 of 6
survivor count (dose: 400.0 mg/kg/injection, schedule: Q01DX005 (ip), vehicle: water): 2 of 6

CCOC(=O)C1=C(C)N(C)C(C)=C(C(=O)OCC)C1c1ccc(Cl)cc1
survivor count (dose: 200.0 mg/kg/injection, schedule: Q01DX009 (ip), vehicle: distilled water + Tween-80): 6 of 6

O=[N+]([O-])c1cc(Cl)c(Cl)cc1NS(=O)(=O)c1ccccc1
survivor count (dose: 600.0 mg/kg/injection, schedule: Q01DX009 (ip), vehicle: saline with Tween-80): 4 of 6

C/C(=N\NC(=S)N(C)C)c1cnccn1
survivor count [2]: 2 of 6
survivor count [3]: 4 of 6

Nc1ccc(N=Nc2ccncc2)c2ccccc12
survivor count [3]: 3 of 6

Cc1cc(=NO)cc(C)n1O
T/C (dose: 100.0 mg/kg/injection, schedule: Q01DX005 (ip), vehicle: distilled water + alcohol): 125 % of control
T/C (dose: 200.0 mg/kg/injection, schedule: Q01DX005 (ip), vehicle: distilled water + alcohol): 127 and 131 % of control
T/C (dose: 400.0 mg/kg/injection, schedule: Q01DX005 (ip), vehicle: distilled water + alcohol): 136 % of control

Nc1c(-c2nc3ccc(C4=NCCN4)cc3[nH]2)[nH]c2cc(-c3nc4ccc(C5=NCCN5)cc4[nH]3)ccc12
survivor count [4]: 0 of 6

CCN(CC)CCOc1ccccc1C(C)=O
survivor count [2]: 2 of 6
survivor count [3]: 0 of 6

CCCCN(CCCC)CCNc1ccc(C)c2sc3cc(Cl)ccc3c(=O)c12
survivor count [4]: 5 of 5

Nc1ncnc2c1ncn2[C@@H](C=O)O[C@@H](C=O)CO
T/C (dose: 1.56 mg/kg/injection, schedule: Q01DX009 (ip), vehicle: other): 128 and 138 % of control
T/C (dose: 3.13 mg/kg/injection, schedule: Q01DX009 (ip), vehicle: other): 141 % of control
survivor count (dose: 25.0 mg/kg/injection, schedule: Q01DX009 (ip), vehicle: other): 2 of 6 and 3 of 6
survivor count (dose: 50.0 mg/kg/injection, schedule: Q01DX009 (ip), vehicle: other): 1 of 6

C1CCC2(CC1)CSC2.[Br][Hg][Br]
survivor count (dose: 25.0 mg/kg/injection, schedule: Q01DX001 (ip), vehicle: saline with Tween-80): 1 of 6

CCc1nc(N)nc(N)c1-c1ccc(N(C)C2CCCCC2)c([N+](=O)[O-])c1
T/C (dose: 120.0 mg/kg/injection, schedule: Q01DX005 (ip), vehicle: saline with Tween-80): 127 % of control
T/C [1]: 126 % of control
